According to patent US20080171764A1, “METHODS FOR PREVENTING, MANAGING, AND REVERSING DISEASE CAUSED BY INFLAMMATION MEDIATED VASCULAR LESIONS” (priority 2007, published 2008):
At least one structure is not confirmed: it was looked up by name or label, or the drawing left a doubt.

Key:
apoE−/− mice [1] = experiment: abdominal aortic adventitia lesion / AAA analysis (incidence, severity, diameter); type: in vivo; details: the one positive mouse receiving sirolimus vs vehicle control
Text: (§1) ApoE^−/− mice (backcrossed ten times to the C57BL/6 background) were purchased from The Jackson Laboratory. The mice were kept on a twelve-hour light/twelve-hour dark regimen upon arrival. All animal experiments were approved by the IACUC of the Consumer & Personal Product Worldwide, in accordance with AAALAC guidelines. Eight week old, male apoE^−/− mice were fed a normal mouse-chow diet (RP5001; PMI Feeds Inc., St. Louis, Mo.) and acclimated for one week before switching to a pro-atherogenic high fat, high cholesterol, diet (“Western diet”, 21% fat, 0.2% cholesterol, diet No. 88137, Harlan-Teklad, Madison, Wis.) for four weeks. […]
The abdominal aorta was subjected to abdominal aortic adventitia lesion analysis. […] Classification of the adventitia lesions was determined according to the scale based on the gross appearance of the aorta reported by Daugherty et al. Briefly, I: Dilated lumen in the supra-renal region of the aorta with no thrombus; II: Remodeled tissue in the supra-renal region that frequently contains thrombus; III: A pronounced bulbous form of type II that contains thrombus; IV: A form in which there are multiple adventitia lesions containing thrombus, some overlapping, in the suprarenal area of the aorta.

apoE−/− mice [2] = experiment: atherosclerosis quantitation, aortic root analysis (oil red O); type: in vivo; details: sirolimus treated groups vs vehicle control; P<0.05, one-way ANOVA
apoE−/− mice [3] = experiment: histology and immunohistochemistry of adventitia lesions (elastin, CD68, CD31); type: in vivo; details: for inflammatory macrophage (CD68+) accumulation in adventitia lesions: CD68 staining; for extent of media lamina and elastin disruption in adventitia lesional tissue: vs vehicle control (complete disruption)
apoE−/− mice [4] = experiment: CD68 immunohistochemistry at the aortic root (inflammatory macrophages); type: in vivo; details: sirolimus treated groups vs vehicle control; P<0.05, one-way ANOVA
plasma cytokine levels = type: in vivo, mice
apoE−/− mice [5] = experiment: atherosclerosis quantitation, en face surface lesion analysis (Sudan IV), 4-week study; type: in vivo; details: 0.5, 1.0 and 4.0 mg/kg i.p. daily, 4 weeks; P<0.0001, one-way ANOVA vs vehicle
Text: as §1
As stated above, the mice were sacrificed by CO2 inhalation and bled from the abdominal vena cava. […] Atherosclerosis quantitation was assessed using two independent methods: “en face” surface lesion analysis and aortic root analysis. […] The extent of atherosclerosis is expressed as the percent of the aortic surface area covered by lesions. Aortic root analysis provided a second method verifying atherosclerosis quantitation. Briefly, alternate 8-μm frozen sections covering 300 μm of the proximal aorta, starting at the aortic sinus, were stained for atherosclerotic lesions with oil red O. Images of oil red O-stained aortic root sections were captured and analyzed using Image-Pro 6.0 analysis software. […]

CO[C@H]1C[C@@H]2CC[C@@H](C)[C@@](O)(O2)C(=O)C(=O)N2CCCC[C@H]2C(=O)O[C@H]([C@H](C)C[C@@H]2CC[C@@H](O)[C@H](OC)C2)CC(=O)[C@H](C)/C=C(\C)[C@@H](O)[C@@H](OC)C(=O)[C@H](C)C[C@H](C)/C=C/C=C/C=C/1C [sirolimus]
severity of abdominal aortic adventitia lesion (Daugherty classification) (apoE−/− mice [1]): Much less advanced | lesion area at the aortic root (oil red O positive staining area) (apoE−/− mice [2]): significantly (P<0.05, one-way ANOVA) reduced | CD31+ cells / vasa vasorum in adventitia lesions (apoE−/− mice [3]; CD31 staining): obviously prevents this event | inflammatory macrophage (CD68+) accumulation in adventitia lesions (apoE−/− mice [3]): prevents inflammatory macrophages accumulation | inflammatory macrophage (CD68+) accumulation in adventitia lesions (apoE−/− mice [3]; listed as Sirolimus): reduced CD68^+ inflammatory cell infiltration | extent of media lamina and elastin disruption in adventitia lesional tissue (apoE−/− mice [3]): obviously reduced | extent of media lamina and elastin disruption in adventitia lesional tissue (apoE−/− mice [3]; listed as Sirolimus): prevented elastin disruption | CD68 positive area at the aortic root (apoE−/− mice [4]): Significant reduction | Th1/Th2 cytokine profile in vivo (plasma cytokine levels): altered Th1/Th2 cytokine profile | atherosclerotic lesions, en face analysis (in words) (apoE−/− mice [5]): reduced atherosclerotic lesions
